Amino acid sequences for entries named in this document (tags omitted).
UniProt A0A509ARI5: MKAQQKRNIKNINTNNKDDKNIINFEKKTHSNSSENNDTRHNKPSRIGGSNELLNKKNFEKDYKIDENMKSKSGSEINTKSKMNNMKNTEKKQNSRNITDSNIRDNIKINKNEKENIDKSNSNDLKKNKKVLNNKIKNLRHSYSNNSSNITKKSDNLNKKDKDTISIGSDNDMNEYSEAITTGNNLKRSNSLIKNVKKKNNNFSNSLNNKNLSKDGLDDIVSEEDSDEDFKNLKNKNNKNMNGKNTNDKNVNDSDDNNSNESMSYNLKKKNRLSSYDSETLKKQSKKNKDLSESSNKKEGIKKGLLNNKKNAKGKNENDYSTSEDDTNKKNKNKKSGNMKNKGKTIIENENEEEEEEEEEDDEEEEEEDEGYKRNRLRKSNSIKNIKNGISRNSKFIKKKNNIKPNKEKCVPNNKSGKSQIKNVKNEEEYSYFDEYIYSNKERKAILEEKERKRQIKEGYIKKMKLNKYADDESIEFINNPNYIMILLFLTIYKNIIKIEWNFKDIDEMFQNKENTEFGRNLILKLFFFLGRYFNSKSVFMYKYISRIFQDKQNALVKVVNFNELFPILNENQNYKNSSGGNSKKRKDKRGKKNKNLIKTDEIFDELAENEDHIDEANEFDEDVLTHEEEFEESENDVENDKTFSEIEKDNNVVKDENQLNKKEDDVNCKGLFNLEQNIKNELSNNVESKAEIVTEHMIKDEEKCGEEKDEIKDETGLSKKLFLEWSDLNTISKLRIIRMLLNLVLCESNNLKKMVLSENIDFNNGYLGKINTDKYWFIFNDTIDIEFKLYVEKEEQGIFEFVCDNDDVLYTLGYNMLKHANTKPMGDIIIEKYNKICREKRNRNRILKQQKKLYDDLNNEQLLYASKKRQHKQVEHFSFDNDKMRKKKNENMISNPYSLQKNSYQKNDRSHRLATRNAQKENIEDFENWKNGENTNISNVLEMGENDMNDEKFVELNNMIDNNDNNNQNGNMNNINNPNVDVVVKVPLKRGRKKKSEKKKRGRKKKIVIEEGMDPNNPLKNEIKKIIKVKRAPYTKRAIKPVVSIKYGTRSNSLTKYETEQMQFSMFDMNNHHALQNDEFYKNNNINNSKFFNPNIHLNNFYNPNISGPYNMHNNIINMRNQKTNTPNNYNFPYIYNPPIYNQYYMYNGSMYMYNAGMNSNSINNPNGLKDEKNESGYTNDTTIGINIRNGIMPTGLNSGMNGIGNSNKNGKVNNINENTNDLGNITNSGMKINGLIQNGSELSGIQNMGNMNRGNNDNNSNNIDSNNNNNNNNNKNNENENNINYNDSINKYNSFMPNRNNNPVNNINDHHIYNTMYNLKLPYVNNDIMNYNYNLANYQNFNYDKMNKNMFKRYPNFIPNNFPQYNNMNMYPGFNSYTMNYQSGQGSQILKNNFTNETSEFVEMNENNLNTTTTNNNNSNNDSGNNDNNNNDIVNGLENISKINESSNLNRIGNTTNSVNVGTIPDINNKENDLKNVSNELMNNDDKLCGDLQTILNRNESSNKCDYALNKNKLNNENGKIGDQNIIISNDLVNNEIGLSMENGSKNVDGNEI
UniProt A0A509APU6: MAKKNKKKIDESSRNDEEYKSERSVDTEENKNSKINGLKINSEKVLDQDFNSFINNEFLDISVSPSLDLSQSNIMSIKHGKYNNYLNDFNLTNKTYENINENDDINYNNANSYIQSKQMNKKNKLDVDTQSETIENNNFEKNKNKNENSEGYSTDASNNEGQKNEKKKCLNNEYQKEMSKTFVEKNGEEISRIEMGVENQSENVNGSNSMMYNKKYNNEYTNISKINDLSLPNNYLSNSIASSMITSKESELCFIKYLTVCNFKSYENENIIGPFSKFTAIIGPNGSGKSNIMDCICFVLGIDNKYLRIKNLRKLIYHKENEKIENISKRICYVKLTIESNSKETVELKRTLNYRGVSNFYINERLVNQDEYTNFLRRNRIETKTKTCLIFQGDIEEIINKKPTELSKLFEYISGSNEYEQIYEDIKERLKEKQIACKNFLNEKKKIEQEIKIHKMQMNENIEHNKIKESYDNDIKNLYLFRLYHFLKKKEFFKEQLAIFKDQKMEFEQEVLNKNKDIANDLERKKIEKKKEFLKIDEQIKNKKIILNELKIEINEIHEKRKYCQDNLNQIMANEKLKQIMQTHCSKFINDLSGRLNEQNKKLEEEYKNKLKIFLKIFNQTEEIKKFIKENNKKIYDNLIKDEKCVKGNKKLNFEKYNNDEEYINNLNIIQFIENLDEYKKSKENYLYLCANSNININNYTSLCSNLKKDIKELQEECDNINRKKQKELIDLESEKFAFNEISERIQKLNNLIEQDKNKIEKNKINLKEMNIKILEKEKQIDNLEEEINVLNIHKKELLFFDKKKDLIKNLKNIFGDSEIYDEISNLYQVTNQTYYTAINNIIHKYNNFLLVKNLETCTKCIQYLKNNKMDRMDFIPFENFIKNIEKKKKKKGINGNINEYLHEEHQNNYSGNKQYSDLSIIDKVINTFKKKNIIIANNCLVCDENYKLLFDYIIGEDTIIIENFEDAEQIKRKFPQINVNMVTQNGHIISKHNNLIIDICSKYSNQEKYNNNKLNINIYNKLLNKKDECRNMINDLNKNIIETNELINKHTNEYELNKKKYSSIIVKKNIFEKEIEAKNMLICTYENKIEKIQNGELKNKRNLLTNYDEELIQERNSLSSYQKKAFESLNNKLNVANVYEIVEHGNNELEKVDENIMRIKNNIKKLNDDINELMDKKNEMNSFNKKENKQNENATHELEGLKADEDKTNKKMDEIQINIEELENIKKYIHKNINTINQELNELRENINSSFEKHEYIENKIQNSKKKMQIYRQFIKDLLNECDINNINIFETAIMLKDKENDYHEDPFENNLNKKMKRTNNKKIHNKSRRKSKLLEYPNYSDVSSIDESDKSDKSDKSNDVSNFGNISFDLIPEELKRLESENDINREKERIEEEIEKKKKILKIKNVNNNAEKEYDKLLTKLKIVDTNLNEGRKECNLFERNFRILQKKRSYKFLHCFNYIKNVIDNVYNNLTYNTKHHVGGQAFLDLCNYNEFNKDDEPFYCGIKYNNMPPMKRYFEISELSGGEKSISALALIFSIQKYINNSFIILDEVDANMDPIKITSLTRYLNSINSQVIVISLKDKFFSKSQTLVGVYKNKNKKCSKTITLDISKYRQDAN

According to PMC6693557:

T1: PBANKA_0942700, chromatin remodeling protein, putative (SNF2L), 3xHA-tagged (P. berghei)
T1 sequence: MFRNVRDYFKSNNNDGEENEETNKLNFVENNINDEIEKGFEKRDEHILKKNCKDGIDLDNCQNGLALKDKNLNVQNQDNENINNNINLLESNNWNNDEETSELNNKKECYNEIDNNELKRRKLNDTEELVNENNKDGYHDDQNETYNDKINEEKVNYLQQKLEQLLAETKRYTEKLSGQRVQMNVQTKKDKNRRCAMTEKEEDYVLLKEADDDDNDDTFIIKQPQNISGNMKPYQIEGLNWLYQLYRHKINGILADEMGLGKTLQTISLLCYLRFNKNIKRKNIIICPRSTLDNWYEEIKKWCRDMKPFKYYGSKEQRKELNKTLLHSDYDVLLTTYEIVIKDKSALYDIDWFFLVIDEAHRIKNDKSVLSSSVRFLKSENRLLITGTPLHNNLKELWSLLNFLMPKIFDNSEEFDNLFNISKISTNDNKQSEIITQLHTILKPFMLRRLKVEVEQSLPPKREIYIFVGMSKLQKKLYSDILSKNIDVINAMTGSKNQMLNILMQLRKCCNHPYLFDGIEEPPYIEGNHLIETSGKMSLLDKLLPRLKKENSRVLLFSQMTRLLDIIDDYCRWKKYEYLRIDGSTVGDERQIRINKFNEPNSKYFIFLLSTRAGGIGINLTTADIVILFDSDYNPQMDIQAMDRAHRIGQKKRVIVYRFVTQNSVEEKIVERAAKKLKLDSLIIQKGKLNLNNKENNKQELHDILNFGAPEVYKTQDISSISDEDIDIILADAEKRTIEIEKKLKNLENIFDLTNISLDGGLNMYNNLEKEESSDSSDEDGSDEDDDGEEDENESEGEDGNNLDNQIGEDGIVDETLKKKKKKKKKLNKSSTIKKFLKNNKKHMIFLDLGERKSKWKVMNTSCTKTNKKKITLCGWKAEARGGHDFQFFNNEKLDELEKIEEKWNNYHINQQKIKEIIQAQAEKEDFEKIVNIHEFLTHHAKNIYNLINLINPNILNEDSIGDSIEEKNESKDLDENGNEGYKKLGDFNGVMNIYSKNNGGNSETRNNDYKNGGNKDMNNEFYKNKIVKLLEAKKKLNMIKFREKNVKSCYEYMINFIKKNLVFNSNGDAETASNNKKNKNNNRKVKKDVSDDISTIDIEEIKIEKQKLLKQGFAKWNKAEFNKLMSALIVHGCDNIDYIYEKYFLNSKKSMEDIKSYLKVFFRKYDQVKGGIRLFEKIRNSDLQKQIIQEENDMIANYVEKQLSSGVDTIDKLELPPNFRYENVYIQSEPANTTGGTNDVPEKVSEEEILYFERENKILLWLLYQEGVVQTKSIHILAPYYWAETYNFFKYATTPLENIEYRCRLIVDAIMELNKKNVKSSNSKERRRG

T2: PBANKA_0716000, structural maintenance of chromosomes protein 3, putative, 3xHA-tagged (P. berghei)
T2 sequence: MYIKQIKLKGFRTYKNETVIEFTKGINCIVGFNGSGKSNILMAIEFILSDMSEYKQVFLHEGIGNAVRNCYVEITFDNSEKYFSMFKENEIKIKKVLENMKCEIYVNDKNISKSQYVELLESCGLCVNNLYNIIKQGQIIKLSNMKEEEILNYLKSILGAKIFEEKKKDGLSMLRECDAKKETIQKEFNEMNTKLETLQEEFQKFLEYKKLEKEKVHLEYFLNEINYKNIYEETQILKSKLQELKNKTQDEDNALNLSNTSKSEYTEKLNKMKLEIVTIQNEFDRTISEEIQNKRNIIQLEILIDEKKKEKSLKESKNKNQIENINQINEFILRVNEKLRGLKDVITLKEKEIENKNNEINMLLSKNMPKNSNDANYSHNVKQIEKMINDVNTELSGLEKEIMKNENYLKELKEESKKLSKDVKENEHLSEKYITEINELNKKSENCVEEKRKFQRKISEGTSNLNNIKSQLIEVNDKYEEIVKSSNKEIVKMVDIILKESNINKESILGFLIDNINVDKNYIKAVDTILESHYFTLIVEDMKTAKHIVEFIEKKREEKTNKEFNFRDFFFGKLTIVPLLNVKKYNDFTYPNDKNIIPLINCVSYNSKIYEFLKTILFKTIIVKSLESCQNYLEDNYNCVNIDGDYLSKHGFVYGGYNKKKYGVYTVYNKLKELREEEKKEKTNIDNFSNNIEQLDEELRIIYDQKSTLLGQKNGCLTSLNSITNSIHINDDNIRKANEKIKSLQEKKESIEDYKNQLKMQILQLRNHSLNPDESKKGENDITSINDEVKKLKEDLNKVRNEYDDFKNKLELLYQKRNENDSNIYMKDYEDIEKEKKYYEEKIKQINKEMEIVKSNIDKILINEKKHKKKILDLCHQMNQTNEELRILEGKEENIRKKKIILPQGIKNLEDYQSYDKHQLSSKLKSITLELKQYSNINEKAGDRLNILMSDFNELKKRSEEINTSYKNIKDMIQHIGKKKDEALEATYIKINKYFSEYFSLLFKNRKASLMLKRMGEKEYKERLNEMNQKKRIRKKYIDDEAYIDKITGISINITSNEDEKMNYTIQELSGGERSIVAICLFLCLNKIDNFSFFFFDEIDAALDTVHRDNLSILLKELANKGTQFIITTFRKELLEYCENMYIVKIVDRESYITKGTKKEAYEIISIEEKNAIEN

B1: PBANKA_1304000, conserved Plasmodium protein, unknown function (protein, UniProt A0A509AMW3 1-983)
chain: MEVLAWNDMLKPRIKRSRSIIEREESNTEQYNTPNNQLVIYKNSFKNSSLCYAWNAYFDKNKVKKNIMVCCDLNKICNELLKGIENNSLTIKTFSFLFIGVCNIYKKKVHFIGQDYDLLKRKILSLYKNKDQDVDELGNSKDFKRRKVGKNDNGDDNNGNKRRLSKTPLNIKRGSIGLNEAIPSIIDDFTGRKSRFSLTADEISIAGTEPNNGYYLNDSEMNNQMLMDMSGINDFNFDNDNNTTNNNMNNNYHDLEKALEGSFISRHSTPINNLDGLNLNRSLSESFNHMDKLNAENPIFNNMIPKNMFPNLDASFNEKSMGGNFNNLEFNSVNKSDGFNSMSFYNNAVNGDNMNNLNLSNDYMNGTGGNPYIRTDNTNMFNNMKYRSGINNFNDAVNAPKEFQDISYNNNFMGTFQNMNSPMNNRNDMYNFNPFIRMNSMSNNNFDGRNNLNNFSQRMNNQFGDIDAMSNVMVGSMFSPRKQKNTPQKINYLNRLNFEAYQNFDYFEQKDDDVFIKKLNSLLGLDESEGEEEKEKKGEESLVIPEEEKEKDDSSDKDDFDMDNSDNEKDKSKNNELDLQGKNSNNNKLGVSTSNKSDNMQTSKKRKLEKQVVDKNYMIKESVMRSILKNESVNYKNFLIDTINNEINEQIQREHREFQNFCLQSNTDKTKPIYKMEINFGYESLDYEEKKNVLENYLSYSANDTKYLYENKNVLDNFNIKKCLDNIDENAIYNENDSAMSSNFLPFENNEELMKNNSLNIEEVREQFNGFPIDRDNVIPSEFKNKFSIDLSMTQNDPMDLNLNDLNFKDDMESRIHMDSQISKSLVLYGDDGSVSKADDGQNIHNLNEKLNWEFNSSSLDLPGNSNSDFINIFSKDNESILLEDKRIDFDINLKQYFDLIAKDLLEAYKKLSKKINYIFFDLITKNDKSKEEISILFYITLHLANLGYIQIIQKPILPEHLNSYEENFSRPILIQLVDQKEN

What was measured:
[1] = target: T1, PBANKA_0942700, chromatin remodeling protein, putative (SNF2L), 3xHA-tagged (P. berghei); assay: affinity purification with mass spectrometry; anti-HA antibody on Protein G Dynabeads; cleared P. berghei schizont lysate (1 mg protein; 50 mM Tris pH 8, 150 mM NaCl, 1 mM EDTA, 0.1 or 1% NP-40), 2 hours at 4 C; on-bead trypsin digestion, LC-MS/MS; wild-type lysate as control; duplicates; SAINT probability > 0.8 deemed specific
[2] = target: T2, PBANKA_0716000, structural maintenance of chromosomes protein 3, putative, 3xHA-tagged (P. berghei); assay: as above

Molecule | binding [1] | binding [2]
PBANKA_1461600, conserved Plasmodium protein, unknown function (from UniProt A0A509ARI5 1-1555) | binds | –
PBANKA_0917500, structural maintenance of chromosomes protein 1, putative (from UniProt A0A509APU6 1-1620) | – | binds
B1 | – | binds

No constants are given. Whether binding was seen depends on the method and setting. Binding seen in cells or lysates may run through a third protein. These calls come from enrichment with a bait or labelling near it, and not all partners need be listed. Tags and fused reporters may be left off the sequences shown.
